# Test results taken from the supplement of paper PMC10670038.
# ± gives the standard deviation of the averaged measurements. Most of the lowest values are listed elsewhere, so they are rarer here than in the full data.
# Tested on: TE10
# Assay: relative cell viability vs DMSO, compound alone (fraction); TE10 is an esophageal squamous carcinoma line; higher = less cytotoxic
# Settings: 2 µM; 48 h
# Procedure: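 TE10 ESCC cells (1,000/well, 384-well plates) were treated with Selleck bioactive library compounds at 2 uM alone for 48 h. Viability was read by CellTiter-Glo and expressed relative to DMSO wells. Two technical replicates (A, B).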
row,Structure (SMILES),relative cell viability
1,Cc1c(C(=O)NN2CCCCC2)nn(-c2ccc(Cl)cc2Cl)c1-c1ccc(I)cc1,1.1 ± 0.028
